Measurements published in patent publication US20070275063A1, “SUSTAINED RELEASE PHARMACEUTICAL COMPOSITIONS AND METHODS OF TREATMENT USING THE SAME” (SmithKline Beecham Corporation, priority 1998, published 2007).

Test system: fasting plasma glucose (FPG) concentrations in diabetic patients
Assay: PK/PD model (modified indirect response model IV) of the effect of Compound (I) on fasting plasma glucose in Type 2 diabetes patients
Type: in vivo, human
Conditions: estimated pharmacodynamic parameter
Source text: The method by which the Threshold Plasma Concentration, such as the SC50 concentration, for a given compound can be determined is:
2) the model predicted concentrations for the compound are then fed back into the model and used to determine the change in fasting plasma glucose levels after various doses;
3) the relationship between predicted plasma concentrations of compound and fasting plasma glucose can suitably be determined using an indirect pharmacological response model (model IV), for example that described in (Dayneka N L, Garg V and Jusko W J, Comparison of Four Basic Models of Indirect Pharmacodynamic Responses. J of Pharmacokinetics and Biopharmaceutics. Vol 21, No 4. 1993). This model yields estimates of glucose input rate (Kin) and output rate (Kout), maximal stimulation of glucose output (Smax). Hill coefficient (gamma) and the Threshold Plasma Concentration, such as the SC50 concentration (i.e the concentration associated with a half maximal response) to be determined for that compound. This method forms a further part of the present invention.
For Compound (I), it was necessary to account for a time delay between the time of actual initiation of dosing (week 0) and the observed change in fasting plasma glucose. This delay factor was estimated through the modelling for each dose level. […] The delay factor was incorporated into the model for deriving fasting plasma glucose by assuming that the first dose of drug occurred only after the time dictated by the delay factor. It is considered that for this model a delay factor would be required for other thiazolidinedione insulin sensitisers and that this factor will be substantially similar to that found for Compound (I). Delay factors for other compounds may also be required to be determined using similar methodology to that disclosed herein.
A modified indirect response model IV (Dayneka et al. 1993) was developed utilizing the pharmacokinetics of Compound (I) as the driving force for the change in fasting plasma glucose after various doses of Compound (I). […]

CN(CCOc1ccc(CC2SC(=O)NC2=O)cc1)c1ccccn1 (stereo not drawn) [Compound (I), 5-[4-[2-(N-methyl-N-(2-pyridyl)amino)ethoxy]benzyl]thiazolidine-2,4-dione]
γ (sigmoidicity parameter, Hill coefficient): 3.1 | kin (formation of plasma glucose) (mean FPG data, 26 weeks): 0.54 mg/dL of FPG per h | kout (utilization of plasma glucose) (mean FPG data, 26 weeks): 0.0023 h⁻¹
